{
  "sequences": {"note": "Sequences of proteins named here, by UniProt entry; tags and fusion partners are left off. Residues count along the entry.", "UniProt P37173, residues 23-567": "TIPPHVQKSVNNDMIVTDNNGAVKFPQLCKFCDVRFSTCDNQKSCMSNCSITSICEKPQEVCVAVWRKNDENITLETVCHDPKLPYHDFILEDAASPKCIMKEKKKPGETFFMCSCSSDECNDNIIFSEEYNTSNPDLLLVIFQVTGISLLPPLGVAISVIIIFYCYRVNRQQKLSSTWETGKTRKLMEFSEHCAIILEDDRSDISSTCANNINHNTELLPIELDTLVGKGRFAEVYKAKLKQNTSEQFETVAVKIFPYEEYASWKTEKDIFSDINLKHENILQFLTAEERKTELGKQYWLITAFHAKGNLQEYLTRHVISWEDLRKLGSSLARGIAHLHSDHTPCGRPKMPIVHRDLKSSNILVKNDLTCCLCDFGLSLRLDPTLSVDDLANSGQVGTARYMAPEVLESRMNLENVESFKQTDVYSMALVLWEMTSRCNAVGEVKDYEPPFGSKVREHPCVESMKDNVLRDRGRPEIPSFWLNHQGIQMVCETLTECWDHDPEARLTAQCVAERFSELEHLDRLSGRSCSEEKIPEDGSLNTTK", "UniProt O14744": "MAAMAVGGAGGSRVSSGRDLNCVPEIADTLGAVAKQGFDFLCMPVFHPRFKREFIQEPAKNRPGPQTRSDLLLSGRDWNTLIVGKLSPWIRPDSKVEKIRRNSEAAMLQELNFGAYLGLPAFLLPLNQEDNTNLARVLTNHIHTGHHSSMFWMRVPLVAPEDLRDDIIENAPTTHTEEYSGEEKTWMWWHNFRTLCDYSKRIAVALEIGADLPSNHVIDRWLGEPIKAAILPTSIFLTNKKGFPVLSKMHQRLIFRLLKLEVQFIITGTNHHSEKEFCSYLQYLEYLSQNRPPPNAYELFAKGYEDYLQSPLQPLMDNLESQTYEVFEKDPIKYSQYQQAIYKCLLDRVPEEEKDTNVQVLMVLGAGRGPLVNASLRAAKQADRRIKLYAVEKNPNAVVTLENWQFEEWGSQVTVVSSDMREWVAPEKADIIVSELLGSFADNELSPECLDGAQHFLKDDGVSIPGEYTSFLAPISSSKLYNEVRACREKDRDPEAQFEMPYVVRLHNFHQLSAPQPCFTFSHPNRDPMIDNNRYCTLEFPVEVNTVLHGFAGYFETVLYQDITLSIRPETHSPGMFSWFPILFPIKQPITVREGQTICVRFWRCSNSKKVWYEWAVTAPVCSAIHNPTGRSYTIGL", "UniProt Q99873": "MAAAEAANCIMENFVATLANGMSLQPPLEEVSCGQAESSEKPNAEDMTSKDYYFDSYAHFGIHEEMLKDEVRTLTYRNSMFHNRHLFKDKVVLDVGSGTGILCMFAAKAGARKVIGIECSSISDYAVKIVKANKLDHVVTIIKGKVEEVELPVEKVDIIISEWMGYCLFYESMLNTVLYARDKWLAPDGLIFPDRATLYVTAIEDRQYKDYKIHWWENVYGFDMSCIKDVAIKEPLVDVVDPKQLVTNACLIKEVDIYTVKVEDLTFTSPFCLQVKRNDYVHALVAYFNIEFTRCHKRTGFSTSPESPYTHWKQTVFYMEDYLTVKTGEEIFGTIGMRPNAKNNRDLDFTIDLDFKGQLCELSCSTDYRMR"},
  "source": "paper PMC4728123",
  "key": {"[1]": {"molecular_target": "TGFβ type II receptor Flag (TβRII-Flag) (UniProt P37173)", "test": "affinity purification with mass spectrometry; cells expressing TβRII-Flag or TβRI-Flag and integrin αV-mCherry, lysed (50 mM Tris pH 7.5, 150 mM NaCl, 2 mM EDTA, 0.5% Igepal, 0.25% sodium deoxycholate), M2-Flag magnetic beads, on-bead trypsin digestion, LC-MS/MS; compared with untransfected (mock) cells"}, "[2]": {"molecular_target": "T1, TGFβ type I receptor Flag (TβRI-Flag, Alk5) (UniProt P36897)", "T1 sequence": "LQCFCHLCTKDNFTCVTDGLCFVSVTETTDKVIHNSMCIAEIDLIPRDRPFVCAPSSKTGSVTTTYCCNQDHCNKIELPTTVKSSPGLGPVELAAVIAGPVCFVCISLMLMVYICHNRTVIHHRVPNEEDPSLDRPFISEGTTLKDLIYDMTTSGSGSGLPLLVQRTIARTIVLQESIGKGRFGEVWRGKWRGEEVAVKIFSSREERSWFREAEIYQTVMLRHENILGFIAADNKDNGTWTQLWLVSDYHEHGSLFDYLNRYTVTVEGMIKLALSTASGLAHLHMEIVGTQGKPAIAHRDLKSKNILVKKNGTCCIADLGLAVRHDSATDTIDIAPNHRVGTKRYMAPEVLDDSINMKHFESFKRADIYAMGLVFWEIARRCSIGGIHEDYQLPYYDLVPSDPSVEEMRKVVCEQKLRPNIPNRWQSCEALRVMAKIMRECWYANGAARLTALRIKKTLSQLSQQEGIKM", "test": "affinity purification with mass spectrometry; cells expressing TβRII-Flag or TβRI-Flag and integrin αV-mCherry, lysed (50 mM Tris pH 7.5, 150 mM NaCl, 2 mM EDTA, 0.5% Igepal, 0.25% sodium deoxycholate), M2-Flag magnetic beads, on-bead trypsin digestion, LC-MS/MS; compared with untransfected (mock) cells"}},
  "note": "Results are given in words; binding and its absence hold for the method and conditions named. Binding seen in cells or lysates may run through a third protein. These calls come from enrichment with a bait or labelling near it, and not all partners need be listed. For some of these results: Sequences can lack the tags named with a protein.",
  "data": [
    {"substance": "PRMT5 (from UniProt O14744 1-637) (enzyme)", "values": [
      {"measurement": "binding", "setting": "[1]", "result": "binds"},
      {"measurement": "binding", "setting": "[2]", "result": "binds"}
    ]},
    {"substance": "PRMT1 (from UniProt Q99873 1-371) (enzyme)", "values": [
      {"measurement": "binding", "setting": "[1]", "result": "binds"},
      {"measurement": "binding", "setting": "[2]", "result": "binds"}
    ]}
  ]
}
